Publication PMC8502442 (Pharmacology Research & Perspectives, 2021)

Tests used:
[1] = rat; cited from earlier work
[2] = Rat pharmacokinetics following an IV single bolus; type: in vivo; settings: plasma, 1 mg/kg

clearance [2] [mL/min/kg]	SMILES	hepatic CL [1]	renal CL [1] [mL/min/kg]	reported plasma CL [1] [mL/min/kg]
	CC(C)NCC(O)COc1ccc(CC(N)=O)cc1 (centres unmarked) [Atenolol, atenolol]	about 14 ml/min/kg	~13	26.0
152 ± 11	CN(C)CCOC(c1ccccc1)c1ccccc1 [Diphenhydramine, diphenhydramine]			115
